Data reported in publication doi:10.1101/2020.06.22.164467.
Results are given in words; binding and its absence hold for the method and conditions named. Binding seen in cells or lysates may run through a third protein. Some results given as binding are weak or reduced against the parent protein; the word gives no strength.

Chains of the proteins cited; added tags and fusions are not shown. Residues count along the entry.
UniProt P02545, residues 1-646: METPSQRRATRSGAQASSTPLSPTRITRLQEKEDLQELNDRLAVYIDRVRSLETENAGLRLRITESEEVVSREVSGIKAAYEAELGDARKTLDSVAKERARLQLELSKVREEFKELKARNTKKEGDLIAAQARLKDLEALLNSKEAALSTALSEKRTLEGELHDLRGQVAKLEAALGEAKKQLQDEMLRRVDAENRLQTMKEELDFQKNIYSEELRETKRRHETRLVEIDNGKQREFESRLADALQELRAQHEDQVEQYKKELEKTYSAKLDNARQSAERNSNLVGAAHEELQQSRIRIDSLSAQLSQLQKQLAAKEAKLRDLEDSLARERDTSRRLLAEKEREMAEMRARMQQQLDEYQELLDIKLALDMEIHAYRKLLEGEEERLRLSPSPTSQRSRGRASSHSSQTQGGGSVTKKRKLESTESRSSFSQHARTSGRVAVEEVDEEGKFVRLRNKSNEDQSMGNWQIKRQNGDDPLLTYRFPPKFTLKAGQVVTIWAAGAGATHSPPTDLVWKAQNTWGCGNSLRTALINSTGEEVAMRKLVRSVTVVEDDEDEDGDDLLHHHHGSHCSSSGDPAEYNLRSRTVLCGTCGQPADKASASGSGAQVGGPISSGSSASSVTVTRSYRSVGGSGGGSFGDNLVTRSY

Biological target: lamin A (human (endogenous in Caco-2)) (UniProt P02545)
Test: co-IP

binding: binds
B1: lamina-associated polypeptide 2α (LAP2α) (protein, UniProt P42166 1-694)
chain: MPEFLEDPSVLTKDKLKSELVANNVTLPAGEQRKDVYVQLYLQHLTARNRPPLPAGTNSKGPPDFSSDEEREPTPVLGSGAAAAGRSRAAVGRKATKKTDKPRQEDKDDLDVTELTNEDLLDQLVKYGVNPGPIVGTTRKLYEKKLLKLREQGTESRSSTPLPTISSSAENTRQNGSNDSDRYSDNEEGKKKEHKKVKSTRDIVPFSELGTTPSGGGFFQGISFPEISTRPPLGSTELQAAKKVHTSKGDLPREPLVATNLPGRGQLQKLASERNLFISCKSSHDRCLEKSSSSSSQPEHSAMLVSTAASPSLIKETTTGYYKDIVENICGREKSGIQPLCPERSHISDQSPLSSKRKALEESESSQLISPPLAQAIRDYVNSLLVQGGVGSLPGTSNSMPPLDVENIQKRIDQSKFQETEFLSPPRKVPRLSEKSVEERDSGSFVAFQNIPGSELMSSFAKTVVSHSLTTLGLEVAKQSQHDKIDASELSFPFHESILKVIEEEWQQVDRQLPSLACKYPVSSREATQILSVPKVDDEILGFISEATPLGGIQAASTESCNQQLDLALCRAYEAAASALQIATHTAFVAKAMQADISQAAQILSSDPSRTHQALGILSKTYDAASYICEAAFDEVKMAAHTMGNATVGRRYLWLKDCKINLASKNKLASTPFKGGTLFGGEVCKVIKKRGNKH
